# Laboratory results from PubChem BioAssay AID1347076 (National Center for Advancing Translational Sciences (NCATS), 2019).
# The campaign covered roughly 400,000 compounds. About 13,000 (3.2%) were called active. The inconclusive results got no clear call from the source; some entries with a clear call stand among them for comparison. The call rests on the fitted dose curve; in most records, active means well fitted cell-killing curve with a large enough effect; inconclusive means small, poorly fitted or top-dose-only effect, or effect the other way; inactive means flat fitted curve, though single readings scatter. Potencies of inconclusive entries are doubtful fits and often do not repeat.
# Assay: qHTS assay for MDR1-selective chemotherapeutics: Primary screen using the drug-selected MDR subline cells KB-V1; further: nearly all actives have a fitted effect of over 60% in size
# Conditions: KB-V1 MDR cells viability, CellTiter-Glo, 72 h; activity change, negative = cytotoxicity: at 46.1 µM (top of the series)
# Procedure, shortened: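 qHTS viability screen in drug-selected KB-V1 MDR cells: 72 h compound treatment at 37 degrees C, ATP luminescence end point.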
# On the % scale 0 is the no-effect control and ±100 the full control effect; potency means the concentration at half of the fitted maximal effect.
SMILES,"activity change, negative = cytotoxicity",Potency
CC(C)CC1C(=O)N(Cc2cn(CC3CCCCC3)nn2)CCS(=O)(=O)N1Cc1ccc(-c2cccc(C#N)c2)cc1 (stereo unspecified),inactive: -0.0161%,–
CCc1ccccc1NC(=O)CC(C)S(=O)(=O)c1ccc2c(c1)NC(=O)CO2 (stereo unspecified),–,"inconclusive: 29.1 µM [rising, single point]"
CCOc1ccc(C(=O)N2CCc3cc(OC)c(OC)cc3C2)cc1OCC,–,"inconclusive: 16.4 µM [cytotoxic, single point]"
CC(C)n1ncc2c(C(=O)N3CCN(c4ccccc4)CC3)cc(-c3ccccc3)nc21,–,"inconclusive: 20.6 µM [cytotoxic, partial curve]"
O=C(O/N=C\c1ccc(N2CCCCC2)c([N+](=O)[O-])c1)c1c(F)cccc1F,–,"inconclusive: 10.3 µM [cytotoxic, partial curve, poor fit]"
Cc1cccc(CN2C(=O)CSc3ccc(C(=O)NC4CC4)cc32)c1,–,"inconclusive: 2.06 µM [cytotoxic, full curve]"
CCOc1ccc(N2C(=O)CC(Sc3nc(C)cc(C)c3C#N)C2=O)cc1 (stereo unspecified),–,"inconclusive: 20.6 µM [cytotoxic, single point]"
CCSC(C)CC1C/C(=N/O)c2c(CC)noc2C1 (stereo unspecified),–,"inconclusive: 16.4 µM [cytotoxic, partial curve, poor fit]"
Cc1ccc(C(=O)N(C)CC(=O)Nc2ccc(Cl)c(C(F)(F)F)c2)cc1S(=O)(=O)N1CCCCC1,–,"inconclusive: 20.6 µM [cytotoxic, single point]"
COc1ccc(C(=O)c2cnc3ccc(C)cc3c2S(=O)(=O)c2ccccc2)cc1,–,"inconclusive: 29.1 µM [cytotoxic, single point]"
CN(Cc1cn[nH]c1-c1cc2ccccc2o1)CC1CCOCC1,inactive: -0.285%,–
CC(C)Oc1cccc(C(=O)C2CCCN(Cc3cnn(C(C)C)c3)C2)c1 (stereo unspecified),inactive: -14.1%,–
COC(=O)c1ccccc1SC1CC(=O)N(c2ccccc2)C1=O (stereo unspecified),inactive: 0%,–
O=C(/C=C/c1ccc2c(c1)OCCCO2)c1ccccc1O,–,"inconclusive: 16.4 µM [cytotoxic, single point]"
COCCNC(=O)C1(C)CCCN(Cc2sc(C)nc2C)C1 (stereo unspecified),inactive: -11.4%,–
Cn1cnnc1SCC(=O)c1cc2ccccc2oc1=O,inactive: 0.131%,–
CCC(C)c1ccc(NC(=S)Nc2ccc(OC)cc2C)cc1 (stereo unspecified),–,"inconclusive: 32.6 µM [cytotoxic, partial curve, poor fit]"
CC[C@@]1(c2ccccc2C)C(=O)N(C(=O)OC)N1C(=O)OC,–,"inconclusive: 29.1 µM [cytotoxic, single point]"
N#Cc1ccc(C(c2nnnn2CCc2ccccc2)N2CCCCCC2)cc1 (stereo unspecified),–,"inconclusive: 18.4 µM [cytotoxic, partial curve]"
CCOC(=O)[C@]12CCCC=C1N(CCc1ccc(OC)c(OC)c1)C(=O)[C@H](CC(=O)NCc1ccc(C)o1)C2,–,"inconclusive: 7.31 µM [cytotoxic, partial curve]"
CCCCc1nn2c(=O)cc(CN(CC)c3ccccc3)nc2s1,–,"inconclusive: 29.1 µM [cytotoxic, single point]"
Cc1cccc(C(=O)NCC(=O)N2CC=C(c3ccccc3)CC2)c1,inactive: -13.1%,–

# A section from further up, for reference:
SMILES,"activity change, negative = cytotoxicity",Potency
CC(C)CC1C(=O)N(Cc2cn(CC3CCCCC3)nn2)CCS(=O)(=O)N1Cc1ccc(-c2cccc(C#N)c2)cc1 (stereo unspecified),inactive: -0.0161%,–
CCc1ccccc1NC(=O)CC(C)S(=O)(=O)c1ccc2c(c1)NC(=O)CO2 (stereo unspecified),–,"inconclusive: 29.1 µM [rising, single point]"
CCOc1ccc(C(=O)N2CCc3cc(OC)c(OC)cc3C2)cc1OCC,–,"inconclusive: 16.4 µM [cytotoxic, single point]"
CC(C)n1ncc2c(C(=O)N3CCN(c4ccccc4)CC3)cc(-c3ccccc3)nc21,–,"inconclusive: 20.6 µM [cytotoxic, partial curve]"
O=C(O/N=C\c1ccc(N2CCCCC2)c([N+](=O)[O-])c1)c1c(F)cccc1F,–,"inconclusive: 10.3 µM [cytotoxic, partial curve, poor fit]"
Cc1cccc(CN2C(=O)CSc3ccc(C(=O)NC4CC4)cc32)c1,–,"inconclusive: 2.06 µM [cytotoxic, full curve]"
CCOc1ccc(N2C(=O)CC(Sc3nc(C)cc(C)c3C#N)C2=O)cc1 (stereo unspecified),–,"inconclusive: 20.6 µM [cytotoxic, single point]"
CCSC(C)CC1C/C(=N/O)c2c(CC)noc2C1 (stereo unspecified),–,"inconclusive: 16.4 µM [cytotoxic, partial curve, poor fit]"
Cc1ccc(C(=O)N(C)CC(=O)Nc2ccc(Cl)c(C(F)(F)F)c2)cc1S(=O)(=O)N1CCCCC1,–,"inconclusive: 20.6 µM [cytotoxic, single point]"
COc1ccc(C(=O)c2cnc3ccc(C)cc3c2S(=O)(=O)c2ccccc2)cc1,–,"inconclusive: 29.1 µM [cytotoxic, single point]"
CN(Cc1cn[nH]c1-c1cc2ccccc2o1)CC1CCOCC1,inactive: -0.285%,–
CC(C)Oc1cccc(C(=O)C2CCCN(Cc3cnn(C(C)C)c3)C2)c1 (stereo unspecified),inactive: -14.1%,–
COC(=O)c1ccccc1SC1CC(=O)N(c2ccccc2)C1=O (stereo unspecified),inactive: 0%,–
O=C(/C=C/c1ccc2c(c1)OCCCO2)c1ccccc1O,–,"inconclusive: 16.4 µM [cytotoxic, single point]"

# Next part.

SMILES,"activity change, negative = cytotoxicity",Potency
Cc1ccc(S(=O)(=O)N2CCC(=O)N([C@H](COCc3ccc(Cl)cc3Cl)Cc3ccccc3)CC2)cc1,inactive: -20%,–
Cc1ccc(S(=O)(=O)N2CCN(C(=O)CN3C(=O)CNC3=O)CC2)cc1,inactive: 0%,–
COc1ccccc1C1=NN(C2=NN=C(N)Cc3ncnn32)C(O)(C(F)(F)F)C1 (stereo unspecified),inactive: 8.65%,–
CC(C)c1ccc(Cc2cn3cc(-c4cc5ccccc5oc4=O)nc3s2)cc1,–,"inconclusive: 0.461 µM [cytotoxic, full curve, poor fit]"
C=CCn1c2ccccc2c2nnc(SC(CC)C(=O)Nc3sc4c(c3C#N)CCCC4)nc21 (stereo unspecified),–,"inconclusive: 8.2 µM [cytotoxic, partial curve]"
Cc1ccc(NC(=O)NCCOCCn2c(=O)oc3ccccc32)c(C)c1,inactive: -4.15%,–
CC/C(=N/NC(=O)c1ccc(Br)cc1)c1ccc(OCCN2CCOCC2)cc1,inactive: -1.43%,–
CCc1nc2ccc(C(=O)NCCCn3ccnc3)cn2c1N(C)C(=O)COc1ccccc1,–,"inconclusive: 1.03 µM [rising, full curve, poor fit]"
O=C(CN(Cc1ccccc1)C(=O)c1cc2c(s1)CCC2)NCc1cccs1,–,active: 2.91 µM
CNS(=O)(=O)c1cccc(C(=O)OCCCC(=O)c2ccccc2)c1,–,"inconclusive: 20.6 µM [cytotoxic, single point]"
O=C(Nc1cc2c3c(c1)C1CCCC1CN3CC1CCCC21)c1ccc([N+](=O)[O-])cc1 (stereo unspecified),–,"inconclusive: 18.4 µM [cytotoxic, single point]"
O=C(NNc1ccc([N+](=O)[O-])cc1)c1ccccc1Cl,–,"inconclusive: 29.1 µM [rising, single point]"
O=C(Cc1cccs1)NCCc1csc(-c2ccccc2)n1,inactive: -15.5%,–
COc1cccc(C2CC(C(F)(F)F)n3nc(C(=O)NCc4cccnc4)cc3N2)c1 (stereo unspecified),–,"inconclusive: 20.6 µM [cytotoxic, partial curve]"
COc1ccc(Nc2nc3ccccc3n2C)cc1,inactive: 6.22%,–
Cc1ccc(-c2cnc3c(Cl)c(C)nn3c2)cc1,–,active: 11.6 µM
COc1ccc(OC)c(C2=NS(=O)(=O)N(C)C(C(=O)Nc3ccc(C(C)=O)cc3)=C2)c1,–,"inconclusive: 25.9 µM [cytotoxic, single point]"
Cc1ccccc1C(=O)NC1CCN(CC(=O)NC2CCCCC2)CC1,–,"inconclusive: 0.0291 µM [cytotoxic, full curve]"
CN1CCN(c2oc(-c3ccccc3Cl)nc2S(=O)(=O)c2ccccc2)CC1,–,"inconclusive: 5.8 µM [cytotoxic, full curve]"
CC(=O)Nc1ccc(-c2ccnc3c2CC(C)(C(=O)NCc2cccc(Cl)c2)O3)cc1 (stereo unspecified),–,"inconclusive: 29.1 µM [cytotoxic, single point]"
COCCCNC(=O)c1ccc(-c2c(C)noc2C)c2ccoc12,–,"inconclusive: 9.2 µM [cytotoxic, partial curve, poor fit]"
COC(=O)CC(NC(=O)c1ccco1)c1ccc(C(C)C)cc1 (stereo unspecified),–,"inconclusive: 29.1 µM [cytotoxic, single point]"

SMILES,"activity change, negative = cytotoxicity",Potency
O=c1c2nnn(Cc3ccc(Cl)cc3)c2ncn1Cc1ccc(F)cc1,–,"inconclusive: 7.31 µM [cytotoxic, partial curve]"
Cc1cccc(C)c1NC(=O)NCCCN1CCN(c2ccccc2)CC1,inconclusive: -3.11%,–
COc1ccc(NC(=S)N(CCN(C)C)Cc2cccs2)cc1,–,"inconclusive: 29.1 µM [cytotoxic, single point]"
O=C(COc1ccccc1Cl)N1CCN(c2ccc([N+](=O)[O-])c(N3CCCCC3)c2)CC1,–,active: 20.6 µM
CCc1nc2ccc(C(=O)Nc3cc(-c4ccccc4)ccc3OC)cn2c1N(CC)Cc1cccc(Br)c1,–,"inconclusive: 29.1 µM [cytotoxic, single point]"
CCOC(=O)COc1cc([N+](=O)[O-])cc2cccnc12,–,"inconclusive: 29.1 µM [rising, single point]"
CN(C(=O)c1ccco1)c1nc2c(s1)CCCC2,–,"inconclusive: 20.6 µM [cytotoxic, partial curve]"
O=c1[nH]c(CN2CCN(c3ccccn3)CC2)nc2c(Br)cc(Br)cc12,–,"inconclusive: 20.6 µM [cytotoxic, single point]"
COc1cccc(N2[C@@H](CC(C)=O)c3cc(C(F)(F)F)ccc3S2(=O)=O)c1,–,"inconclusive: 23.1 µM [cytotoxic, partial curve]"
COc1ccc(C(=O)/C=C/c2ccc(OCc3ccccc3)cc2)cc1CSCC(=O)O,inactive: 28.6%,–
CCN1C(=O)[C@H]2[C@@H](c3ccc(-c4ccc(Cl)c(Cl)c4)c(OC)c3)N3CCCC[C@@]3(C(=O)OC)[C@H]2C1=O,–,"inconclusive: 20.6 µM [cytotoxic, single point]"
CC(=O)C[C@@H](O)CC(=O)[C@@H]1OC(=O)CCCCCCCCc2ccccc21,inactive: 0%,–
CCOC(=O)c1c(C)[nH]c(C)c1C(=O)COC(=O)c1cccc(S(=O)(=O)N(CC)CC)c1,inactive: -12.2%,–
O=C(CN1C(=O)S/C(=C\c2ccccc2Cl)C1=O)NC1C=CS(=O)(=O)C1 (stereo unspecified),–,"inconclusive: 7.31 µM [rising, partial curve, poor fit]"
CCOC(=O)c1ccc(N2C(=O)c3n[nH]c(C)c3C2c2ccccc2)cc1 (stereo unspecified),–,active: 13 µM
COc1ccccc1N1CCN(CCCNC(=O)Nc2ccccc2C)CC1,–,"inconclusive: 13 µM [cytotoxic, partial curve, poor fit]"
CNC(=O)C1CCC(Cn2c(=O)c3sccc3n(CC(=O)NCc3ccc(C)cc3)c2=O)CC1 (stereo unspecified),–,"inconclusive: 16.4 µM [rising, single point]"
O=C1CCc2cc(S(=O)(=O)NCCC(=O)NC3CCCCC3)ccc2N1,–,"inconclusive: 29.1 µM [rising, single point]"
CC1=C(C(=O)N2CCCCCC2)CC(CC(=O)NC2CCCC2)C(=O)N1CCC1=CCCCC1 (stereo unspecified),–,"inconclusive: 5.17 µM [cytotoxic, partial curve]"
COc1ccc(CCNC(=O)c2cc(-c3cc(C)cc(C)c3O)n[nH]2)cc1OC,–,"inconclusive: 16.4 µM [cytotoxic, single point]"
Cc1ccc2cc3cc(C(=O)N4CC(C)CC(C)C4)oc3nc2c1 (stereo unspecified),–,"inconclusive: 4.11 µM [cytotoxic, partial curve]"
CCOC(=O)C1(Cc2ccccc2)CCN(Cc2cccc(OC)c2O)CC1,–,"inconclusive: 8.2 µM [cytotoxic, partial curve]"
